These results are taken from publication PMC6857042.

In one experiment the target is HA-tagged CACYBP (human) (UniProt Q9HB71). Put plainly: co-IP; anti-HA agarose on lysates of 293T cells co-transfected with Flag- and HA-tagged proteins; NETN buffer; western blotting.
The target of experiment [1] is HA-tagged CACYBP C-terminus mutant (CACYBP-CT) (human) (UniProt Q9HB71). Described as above.
Experiment [2] has as its target T1, HA-tagged CACYBP N-terminus mutant (CACYBP-NT) (human) (UniProt Q9HB71).
T1 sequence: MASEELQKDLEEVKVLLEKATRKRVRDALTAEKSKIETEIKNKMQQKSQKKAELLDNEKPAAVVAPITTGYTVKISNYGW
The experiment is described as above.

In experiment [3] the target is endogenous CACYBP (Huh7) (human (endogenous in Huh7)) (UniProt Q9HB71). Put plainly: co-IP; endogenous proteins, Huh7 cell extract, anti-CACYBP antibody, rabbit normal IgG as control; NETN buffer; western blotting with anti-CACYBP or anti-RNF41.

These are yes or no findings as the source states them, for the method shown. In cells and extracts the contact can be indirect. Some binding calls cover weakened binding; strength is not graded here. For some of these results: Sequences can lack the tags named with a protein.

B1: Flag-tagged RNF41 (RING finger protein 41) (protein, UniProt Q9H4P4 1-317)
chain: MGYDVTRFQGDVDEDLICPICSGVLEEPVQAPHCEHAFCNACITQWFSQQQTCPVDRSVVTVAHLRPVPRIMRNMLSKLQIACDNAVFGCSAVVRLDNLMSHLSDCEHNPKRPVTCEQGCGLEMPKDELPNHNCIKHLRSVVQQQQTRIAELEKTSAEHKHQLAEQKRDIQLLKAYMRAIRSVNPNLQNLEETIEYNEILEWVNSLQPARVTRWGGMISTPDAVLQAVIKRSLVESGCPASIVNELIENAHERSWPQGLATLETRQMNRRYYENYVAKRIPGKQAVVVMACENQHMGDDMVQEPGLVMIFAHGVEEI
Regarding B1, the binding result with HA-tagged CACYBP (human) is recorded as “binds”; in experiment [1], “no binding”; in experiment [2], “no binding”.

B2: endogenous RNF41 (Huh7) (protein, UniProt Q9H4P4 1-317)
chain: B1 chain
Take B2: the binding entry in experiment [3] is given as “binds”.
